Source: article doi:10.1101/2024.09.05.611419
No constants are given. Whether binding was seen depends on the method and setting. For some of these results: In cells and extracts the contact can be indirect. Some entries that bind do so weakly or less than the wild type. For some of these results: Sequences can lack the tags named with a protein.

Protein sequences, listed by entry. Tags and fused reporters are not part of them. Lines headed by an entry give the natural chain unless they say otherwise; changes in a name come on top. Residues count along the entry.
UniProt P25586: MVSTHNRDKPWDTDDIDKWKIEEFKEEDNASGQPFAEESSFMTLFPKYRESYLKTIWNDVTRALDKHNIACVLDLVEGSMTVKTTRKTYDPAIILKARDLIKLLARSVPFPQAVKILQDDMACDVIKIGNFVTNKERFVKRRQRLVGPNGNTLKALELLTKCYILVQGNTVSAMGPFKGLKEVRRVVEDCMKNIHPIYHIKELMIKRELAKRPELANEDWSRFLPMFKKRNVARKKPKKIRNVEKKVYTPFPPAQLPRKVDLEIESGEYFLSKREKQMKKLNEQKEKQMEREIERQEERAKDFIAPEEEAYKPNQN
Krr1ΔC3-FLAG: residues 1-247 of P25586
UniProt P05756: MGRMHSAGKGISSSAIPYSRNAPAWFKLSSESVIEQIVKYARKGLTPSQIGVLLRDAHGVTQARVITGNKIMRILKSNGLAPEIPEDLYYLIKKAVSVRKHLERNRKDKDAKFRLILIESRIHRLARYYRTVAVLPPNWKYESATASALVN
UniProt P33322: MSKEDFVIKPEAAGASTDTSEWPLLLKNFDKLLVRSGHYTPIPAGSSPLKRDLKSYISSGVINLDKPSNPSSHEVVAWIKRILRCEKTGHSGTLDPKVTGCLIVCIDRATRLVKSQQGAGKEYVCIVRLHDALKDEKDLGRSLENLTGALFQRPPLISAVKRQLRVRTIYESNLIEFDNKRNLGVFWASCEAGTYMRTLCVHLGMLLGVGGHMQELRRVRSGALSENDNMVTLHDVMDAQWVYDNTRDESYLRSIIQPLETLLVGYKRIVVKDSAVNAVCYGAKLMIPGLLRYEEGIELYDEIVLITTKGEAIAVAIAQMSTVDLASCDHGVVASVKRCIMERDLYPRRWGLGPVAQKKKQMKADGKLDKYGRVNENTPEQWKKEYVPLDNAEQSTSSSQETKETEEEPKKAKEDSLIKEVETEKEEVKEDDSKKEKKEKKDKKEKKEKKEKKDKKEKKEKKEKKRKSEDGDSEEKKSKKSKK

What was measured:
[1] = target: Krr1ΔC3-FLAG (S. cerevisiae) (UniProt P25586); test: co-sedimentation
[2] = target: Krr1 (wild type), second bait of the split-tag purification Utp23-Krr1 (S. cerevisiae) (UniProt P25586); test: co-sedimentation
[3] = target: T1, protA-TEV-tagged Utp23 (S. cerevisiae) (UniProt Q12339); test: co-sedimentation
T1 sequence: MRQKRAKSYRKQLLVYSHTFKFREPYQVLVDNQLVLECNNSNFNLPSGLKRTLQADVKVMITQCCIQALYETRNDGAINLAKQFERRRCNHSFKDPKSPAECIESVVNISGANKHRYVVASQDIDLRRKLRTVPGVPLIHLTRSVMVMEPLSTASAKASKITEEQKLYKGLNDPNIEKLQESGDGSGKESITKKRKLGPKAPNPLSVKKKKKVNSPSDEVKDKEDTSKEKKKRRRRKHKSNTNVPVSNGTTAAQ

[4] = target: T2, protA-TEV-tagged Utp23 (S. cerevisiae), Q12339; test: co-sedimentation; conditions: remark: other sources report otherwise
T2 chain: T1 sequence

[5] = target: T3, Gar1 (S. cerevisiae (endogenous in the yeast strains)) (UniProt P28007); test: cryo-EM structure
T3 sequence: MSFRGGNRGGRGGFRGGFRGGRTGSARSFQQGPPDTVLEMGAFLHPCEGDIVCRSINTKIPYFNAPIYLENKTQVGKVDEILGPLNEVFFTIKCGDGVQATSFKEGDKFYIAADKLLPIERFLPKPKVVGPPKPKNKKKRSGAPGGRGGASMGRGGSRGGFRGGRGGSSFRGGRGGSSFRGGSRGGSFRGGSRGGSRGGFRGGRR

[6] = target: ribosomal protein uS15 (Rps13) (S. cerevisiae (endogenous in the yeast strains)) (UniProt P05756); test: cryo-EM structure
[7] = target: T1, protA-TEV-tagged Utp23 (S. cerevisiae); test: cryo-EM structure

Question: Which binding [1] does the source give for “Cbf5 (from UniProt P33322 1-483) (enzyme)” here?
Answer: binds

Question: And the binding [2]?
Answer: binds

Question: What about the binding [3] of the same molecule?
Answer: binds

Question: For “ribosomal protein uS15 (Rps13) (from UniProt P05756 1-151)”, which binding [3] is on record?
Answer: binds

B1: Gar1 (protein, UniProt P28007 1-205)
chain: T3 sequence
Question: For B1, which binding [3] is on record?
Answer: binds

B2: Dhr1, Q04217 1-1267 (protein)
chain: MGTYRKRFNEKARSGHMAKLKELKRIRNKQFTRQDENDERVENPDSAPAESSTTEPNANAEILEPLTEEEKKMKKRKLQELFTPKESKVSRLKKKRLDKFIEHQLKREERKTIIGKLQDYKIDTSLLTSSKRLGEGRQTKKEEFKEALSLERQGRGNEQTNEILYEEYEPKVWDEYGEGGSSEDDDGEDDFEASFGSMPKPTDNEEKKSSGFIDHRPAKFGGSGLSFGFSNIKVINKESKTPKKKYNWRQRVEMEELKKHGKEDEMDFDTTSEDDDEEEDQEEEDKMHPSENPLEEVESADSETGSEKFDQNDVANEFKDWANQEIKKLEGRDQELVTPTLNIDYKPIIRKEDLDDGLQEAYVPINENSTRKAFYVEVSRSDEIQKARIQLPVFGEEHKIMEAIHHNDVVIICGETGSGKTTQVPQFLYEAGFGAEDSPDYPGMVGITQPRRVAAVSMAERVANELGDHGHKVGYQIRFDSTAKEDTKVKFMTDGVLLREMMHDFKLTKYSSIIIDEAHERNINTDILIGMLSRCVRLRAKLHKENPIEHKKLKLIIMSATLRVSDFSENKTLFPIAPPVLQVDARQFPVSIHFNRRTAFNYTDEAFRKTCKIHQKLPPGAILVFLTGQQEITHMVKRLRKEFPFKKNSKYNKDLETPVSKMGINSKTTDLEAEDIDFSVQVIDQDKFKSAIRYEEDEGNSGNGEDEEDEEEEGFEEVLTEGQTANDPLYVLPLYSLLPTKEQMRVFQKPPQGSRLCIVATNVAETSLTIPGVRYVVDSGRSKERKYNESNGVQSFEVGWVSKASANQRSGRAGRTGPGHCYRLYSSAVFEHDFEQFSKPEILRMPVESIVLQMKSMAIHNIINFPFPTPPDRVALSKAIQLLQYLGALDNKEMITEDGKKMSLFPLSPRFSKMLLVSDEKACLPYIVAIVSALSVGDPFINEFELGINEISRKPNPDENLDDKIREHDESTPGMDPELKKELRSKFYKSRSQFSKLDKFSDVFRLLSVVSAMDYVPKEQKEIFMKKNFLRGKLMEEIVKLRKQLMYIIKSNTSKENIAVVIRNEDLKSDIPSVIQIKLLKQMICAGFVDHVAVRADVLFPDDAKITNRTSIINIPYIPVLATRTPNIEDCFVYIHPTSILNNLGEMPPKYMLYYSLHLGGNNKTRMNTLCDIASTPLANIARKGLLLTYSKPLTGQGLKTVNLSPTERYCYVVPRFGSTVDNDLKIGWDLNPIAVHQKKQKGQWTVIKFITRKGFQTITGEEKEKK
Question: For B2, which binding [4] is on record?
Answer: binds

B3: Dhr1 (protein, UniProt Q04217 1-1267)
chain: B2 chain
Question: B3 was tested. Which binding [1] did it give?
Answer: binds

B4: Nop9 (protein, UniProt P47077 1-666)
chain: MGKTKTRGRRHQDKQRKDEFEPSSNSAKEHIQQEESTYNDEAEIKETQPQMFFGVLDREELEYFKQAESTLQLDAFEAPEEKFQFVTSIIEEAKGKELKLVTSQITSKLMERVILECDETQLKDIFQSFNGVFFGLSCHKYASHVLETLFVRSAALVERELLTPSFDNNEKEGPYVTMENMFLFMLNELKPHLKTMMNHQYASHVLRLLILILSSKTLPNSTKANSTLRSKKSKIARKMIDIKDNDDFNKVYQTPESFKSELRDIITTLYKGFTNGAESRSDISQSTITKFREYSVDKVASPVIQLIIQVEGIFDRDRSFWRLVFNTADEKDPKEESFLEYLLSDPVGSHFLENVIGSARLKYVERLYRLYMKDRIVKLAKRDTTGAFVVRALLEHLKEKDVKQILDAVVPELSMLLNSNMDFGTAIINASNKQGGYLRDDVIAQLIQKYYPEKSDAKNILESCLLLSASTLGNTRDDWPTAEERRRSVFLEQLIDYDDKFLNITIDSMLALPEERLIQMCYHGVFSHVVEHVLQTTRVDIIKRKMLLNILSKESVNLACNVYGSHIMDKLWEFTAKLTLYKERIARALVLETEKVKNSIYGRQVWKNWKLELYVRKMWDWKKLIKEQEFEIFPNSKPLQPKPEKHSRERNNSKEGSAFKKQKHYR
Question: Which binding [2] does the source give for B4 here?
Answer: binds

Question: And the binding [3]?
Answer: binds

B5: Kri1 (protein, UniProt P42846 1-591)
chain: MPRKKSAAKRAREQAKKEAAVPATDTATIKTSETSATTVKPAIEASKSYVPSEDEEEDEEEEEEEDDYGELITDEVENGINQVLDAIKNNKTDKLLDPKVKFFEDPESAAAKLANREGKHKPIYLKDYHRMNILSGDALKEDDEEYEHATVDGKQSFVSQQREEKTQLLNEIKSAFSDEENEESSGDEDDGFLKKKEPSTKKEGKNLPDPTVNEENFLEEFVNQQAWIPKKGDKVISLDLNNNEEDDEEFEDAAEKFENAYNFRYEDPNAAEIISYARSQATLRRSDDSSRRRKREEKRKIKEQIKAEKETALQKKKTKKLNKLTDILEQLTKEYGAEINADMVKKITDTLLKNDFKEEEWDNVVAELFNEEFYQQEGKPTWNEDDEIMGDFYADADGDDQTEEGEVEKEQKEEDEEEGPKRKKSKKEEKLQKKKEKRKVNELVENALEQNKLALIEEVEKEEEERKSRSRTKEEQDLKFRYREVSPESFGLTAREIFAADDTDLNEFIGLKKFAPYRSKELRAKDKRKVMKARRLREWRKKTFKNENGLAPVEAEAGEKDEDTILIPVEKASKSKHKRGHSHKHKGHQKK
Question: How did the binding [5] turn out when B5 was run?
Answer: binds

Question: What about the binding [6] of the same molecule?
Answer: binds

Question: And the binding [7]?
Answer: binds

Question: And the binding [3]?
Answer: binds

B6: Mrd1 (protein, UniProt Q06106 1-887)
chain: MSRIIVKGLPVYLTDDNLREHFTKRLRQKHSHQAVNGSGPDLITDVKILRDRNGESRRFGFIGYRNEEDAFDAVEYFNGSFINTSKIEVSMAKSFADPRVPQPMKEKRREALKRFREKEEKLLQEENRKKKKVDENKHSNIDDEIRKNKQLQEFMETMKPSSQVTSWEKVGIDKSIEDEKLKREEEDSSVQGNSLLAHALALKEENNKDEAPNLVIENESDDEYSALNRNRDEDQEDAGEEEKMISISNLKDTDIGLVNDDANSDEKENEKRRNLAQDEKVSDLDWFKQRRVRIKESEAETREKSSSYATEQNESLDTKKEEQPERAVPQKTDEELAIEKINQTGRLFLRNILYTSKEEDFRKLFSPFGELEEVHVALDTRTGQSKGFAYVLFKDSKNAVNAYVELDKQIFQGRLLHILPGEEKKSHRLDEFDLKNMPLKKQKELKRKAAASRQTFSWNSLYMNQDAVLGSVAAKLGLEKSQLIDAENSSSAVKQALAEAHVIGDVRKYFESKGVDLTKFSQLKSTNQRDDKVILVKNFPFGTTREELGEMFLPYGKLERLLMPPAGTIAIVQFRDTTSARAAFTKLSYKRFKDGIIYLERGPKDCFTKPAEADDLINNTSAKEEENPVEVKPSSNDLMEANKDVTEGSSNAHDEDVIDGPTVSIFIKNLNFSTTNQNLTDRFKVFTGFVVAQVKTKPDPKHQGKTLSMGFGFVEFRTKEQANAVIAAMDGTVIDGHKIQLKLSHRQASQSGNTKTKSNKKSGKIIVKNLPFEATRKDVFELFNSFGQLKSVRVPKKFDKSARGFAFVEFLLPKEAENAMDQLHGVHLLGRRLVMQYAEEDAVDAEEEIARMTKKVRKQVATNEMAALRNGGGRKKLDVDDEENEGF
Question: What does the source list for B6?
Answer: binding [1]: no binding; binding [2]: binds; binding [3]: binds

B7: Nhp2 (protein, UniProt P32495 1-156)
chain: MGKDNKEHKESKESKTVDNYEARMPAVLPFAKPLASKKLNKKVLKTVKKASKAKNVKRGVKEVVKALRKGEKGLVVIAGDISPADVISHIPVLCEDHSVPYIFIPSKQDLGAAGATKRPTSVVFIVPGSNKKKDGKNKEEEYKESFNEVVKEVQAL
Question: How did the binding [1] turn out when B7 was run?
Answer: binds

Question: And the binding [2]?
Answer: binds

Question: And the binding [3]?
Answer: binds
